Measurements published in publication PMC3508985.
No constants are given. Whether binding was seen depends on the method and setting. In cells and extracts the contact can be indirect. Some binding calls cover weakened binding; strength is not graded here. For some assays here: Sequences can lack the tags named with a protein.

Amino acid sequences for entries named in this document (tags omitted).
UniProt P01106: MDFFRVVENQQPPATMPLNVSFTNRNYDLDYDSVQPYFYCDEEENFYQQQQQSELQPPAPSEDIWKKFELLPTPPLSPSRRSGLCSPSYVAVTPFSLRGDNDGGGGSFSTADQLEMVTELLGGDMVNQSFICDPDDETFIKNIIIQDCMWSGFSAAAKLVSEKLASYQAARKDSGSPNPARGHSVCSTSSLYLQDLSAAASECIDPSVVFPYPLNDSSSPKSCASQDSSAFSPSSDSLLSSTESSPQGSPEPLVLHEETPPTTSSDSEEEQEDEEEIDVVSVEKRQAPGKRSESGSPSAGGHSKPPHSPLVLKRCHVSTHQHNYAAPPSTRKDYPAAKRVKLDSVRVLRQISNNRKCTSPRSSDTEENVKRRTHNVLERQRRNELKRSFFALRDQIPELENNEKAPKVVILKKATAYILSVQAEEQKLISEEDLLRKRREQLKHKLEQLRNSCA

Columns and labels:
YC-MYC = YC-MYC (UniProt P01106); assay: split reporter; split-YFP BiFC in living HeLa cells, transient transfection with DsRed as transfection control; after 2 days 1.5 hours at 30°C for maturation; confocal microscopy
Myc-p62 = Myc-p62 (UniProt Q13501); assay: co-IP; HA-ARTD10 and Myc-p62 co-expressed in HEK293; cells treated with 0.5 mM dimethyl 3,3′-dithiobispropionimidate in PBS for 30 minutes before lysis (20 mM Tris–HCl pH 7.5, 50 mM NaCl, 0.5% NP-40, 0.5% DOC, 0.5% SDS); p62 immunoprecipitated, Western blot

B1: YN-ARTD10 (enzyme, UniProt Q53GL7 1-1025)
chain: MVAMAEAEAGVAVEVRGLPPAVPDELLTLYFENRRRSGGGPVLSWQRLGCGGVLTFREPADAERVLAQADHELHGAQLSLRPAPPRAPARLLLQGLPPGTTPQRLEQHVQALLRASGLPVQPCCALASPRPDRALVQLPKPLSEADVRVLEEQAQNLGLEGTLVSLARVPQARAVRVVGDGASVDLLLLELYLENERRSGGGPLEDLQRLPGPLGTVASFQQWQVAERVLQQEHRLQGSELSLVPHYDILEPEELAENTSGGDHPSTQGPRATKHALLRTGGLVTALQGAGTVTMGSGEEPGQSGASLRTGPMVQGRGIMTTGSGQEPGQSGTSLRTGPMGSLGQAEQVSSMPMGSLEHEGLVSLRPVGLQEQEGPMSLGPVGSAGPVETSKGLLGQEGLVEIAMDSPEQEGLVGPMEITMGSLEKAGPVSPGCVKLAGQEGLVEMVLLMEPGAMRFLQLYHEDLLAGLGDVALLPLEGPDMTGFRLCGAQASCQAAEEFLRSLLGSISCHVLCLEHPGSARFLLGPEGQHLLQGLEAQFQCVFGTERLATATLDTGLEEVDPTEALPVLPGNAHTLWTPDSTGGDQEDVSLEEVRELLATLEGLDLDGEDWLPRELEEEGPQEQPEEEVTPGHEEEEPVAPSTVAPRWLEEEAALQLALHRSLEPQGQVAEQEEAAALRQALTLSLLEQPPLEAEEPPDGGTDGKAQLVVHSAFEQDVEELDRALRAALEVHVQEETVGPWRRTLPAELRARLERCHGVSVALRGDCTILRGFGAHPARAARHLVALLAGPWDQSLAFPLAASGPTLAGQTLKGPWNNLERLAENTGEFQEVVRAFYDTLDAARSSIRVVRVERVSHPLLQQQYELYRERLLQRCERRPVEQVLYHGTTAPAVPDICAHGFNRSFCGRNATVYGKGVYFARRASLSVQDRYSPPNADGHKAVFVARVLTGDYGQGRRGLRAPPLRGPGHVLLRYDSAVDCICQPSIFVIFHDTQALPTHLITCEHVPRASPDDPSGLPGRSPDT
binding (YC-MYC): binds

B2: HA-ARTD10 (enzyme, UniProt Q53GL7 1-1025)
chain: MVAMAEAEAGVAVEVRGLPPAVPDELLTLYFENRRRSGGGPVLSWQRLGCGGVLTFREPADAERVLAQADHELHGAQLSLRPAPPRAPARLLLQGLPPGTTPQRLEQHVQALLRASGLPVQPCCALASPRPDRALVQLPKPLSEADVRVLEEQAQNLGLEGTLVSLARVPQARAVRVVGDGASVDLLLLELYLENERRSGGGPLEDLQRLPGPLGTVASFQQWQVAERVLQQEHRLQGSELSLVPHYDILEPEELAENTSGGDHPSTQGPRATKHALLRTGGLVTALQGAGTVTMGSGEEPGQSGASLRTGPMVQGRGIMTTGSGQEPGQSGTSLRTGPMGSLGQAEQVSSMPMGSLEHEGLVSLRPVGLQEQEGPMSLGPVGSAGPVETSKGLLGQEGLVEIAMDSPEQEGLVGPMEITMGSLEKAGPVSPGCVKLAGQEGLVEMVLLMEPGAMRFLQLYHEDLLAGLGDVALLPLEGPDMTGFRLCGAQASCQAAEEFLRSLLGSISCHVLCLEHPGSARFLLGPEGQHLLQGLEAQFQCVFGTERLATATLDTGLEEVDPTEALPVLPGNAHTLWTPDSTGGDQEDVSLEEVRELLATLEGLDLDGEDWLPRELEEEGPQEQPEEEVTPGHEEEEPVAPSTVAPRWLEEEAALQLALHRSLEPQGQVAEQEEAAALRQALTLSLLEQPPLEAEEPPDGGTDGKAQLVVHSAFEQDVEELDRALRAALEVHVQEETVGPWRRTLPAELRARLERCHGVSVALRGDCTILRGFGAHPARAARHLVALLAGPWDQSLAFPLAASGPTLAGQTLKGPWNNLERLAENTGEFQEVVRAFYDTLDAARSSIRVVRVERVSHPLLQQQYELYRERLLQRCERRPVEQVLYHGTTAPAVPDICAHGFNRSFCGRNATVYGKGVYFARRASLSVQDRYSPPNADGHKAVFVARVLTGDYGQGRRGLRAPPLRGPGHVLLRYDSAVDCICQPSIFVIFHDTQALPTHLITCEHVPRASPDDPSGLPGRSPDT
binding (Myc-p62): binds weakly
